The experiment is described as follows: qHTS Assay for Lipid Storage Modulators in Drosophila S3 Cells.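 For cell number change: cells counted by Cell Tracker Red CMTPX staining in the red channel.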 As to conditions: BODIPY lipid droplet fluorescence, 18-24 h; for cell number change: measured here: cell count max response, cells fed with added oleic acid. The method in brief:
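Laser-scanning cytometry quantifies lipid droplet accumulation (500–530 nm total intensity; droplet/cell object ratio) in oleic acid-fed (400 uM added) Drosophila S3 cells treated with a concentration series. 20 uM Triacsin C defined 100% inhibition.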

Where [1] appears, read: measured here: cell number channel AC50, cells fed with added oleic acid.
Setting [2] is: measured here: lipid fluorescence (Fed channel) AC50, cells fed with added oleic acid.

The other results are listed elsewhere or left out. These are further read-outs of the screen, such as a control signal, another cell line or another target. No call is given for them. Compounds called inactive in the main read-out are mostly missing here. Potencies come from curve fits of mixed quality, noted in brackets.

For the molecule `COc1ccc(S(=O)(=O)N2CCC(C(=O)NCC3CC3)CC2)cc1`, the cell number change came to 1.28%. In addition, the AC50 under setting [1] was 3.26 µM [rising, single point]. Further, the AC50 under setting [2] is 5.17 µM [falling, single point].

As to `O=C(c1ccccc1F)N1CCN(c2cccc(C(F)(F)F)c2)CC1`, the cell number change was -1.77%. For the same molecule, the AC50 under setting [1] was 0.058 µM [falling, full curve, poor fit].

`NS(=O)(=O)c1cccc(NC(=O)Cn2cnc3ccccc3c2=O)c1`: the cell number change was -11.7%. The concentration at half-maximal activity (AC50) under setting [2] was 23.1 µM [falling, partial curve].

Consider `O=C(CCc1ccccc1)Nc1cc2c3c(c1)CC(=O)N3CCC2`, for which the cell number change was determined as 60.6%. Also, the half-maximal activity concentration (AC50) under setting [1] was 29.1 µM [rising, single point].

As to `O=C(Cn1nnc2ccccc2c1=O)NCC1CCC(C(=O)O)CC1` (stereo not drawn), the cell number change is -23.4%.

`Cc1ccc(CNC(=O)Nc2ccc(OC(F)(F)F)cc2)n1C`: the cell number change worked out at 19.9%. Besides, the half-maximal activity concentration (AC50) under setting [2] was 4.61 µM [rising, full curve, poor fit].

For the molecule `COc1ccc(S(=O)(=O)N(C)CC(=O)NCc2ccco2)cc1Cl`, the cell number change is -21.8%. Also, under setting [2], the concentration at half-maximal activity (AC50) is 29.1 µM [rising, single point].

For the molecule `COC(=O)c1[nH]c2ccccc2c1NC(=O)CN1CCN(C/C=C/c2ccccc2)CC1`, the cell number change is -44%. In addition, under setting [1], the AC50 was 29.1 µM [falling, single point]. The AC50 under setting [2] was 0.517 µM [rising, full curve].

Turning to `O=C(Cn1cc2c(n1)CCCCC2)NCc1cccs1`, the cell number change worked out at 21.6%. Also, the AC50 under setting [2] was 23.1 µM [rising, partial curve, poor fit].

Take `COc1ccc(NC(=S)Nc2cnc3ccccc3c2)c(OC)c1`: the cell number change is 14.9%. In addition, the AC50 under setting [2] was 35.5 µM [rising, single point].

With `O=C(Nc1ccn(C2CC(OC(=O)c3ccccc3)C(CO)O2)c(=O)n1)c1ccccc1` (stereo not drawn), the cell number change is -12%. In addition, under setting [2], the AC50 is 0.00461 µM [falling, full curve, poor fit].

Regarding `O=C(NCCc1ccccc1)c1cc2sccc2n1Cc1ccccc1`, the cell number change was -8.98%. For the same molecule, the AC50 under setting [2] was 29.1 µM [falling, single point].

Regarding `COc1ccc(CCNC(=O)[C@H](C)N2C(=O)N3CCc4c([nH]c5ccccc45)[C@@]3(C)C2=O)cc1`, the cell number change was -34.6%. Moreover, under setting [1], the half-maximal activity concentration (AC50) was 20.6 µM [falling, single point]. Moreover, under setting [2], the AC50 was 29.1 µM [falling, single point].

Consider `O=C(N/N=C(\c1ccccc1)c1cccnc1)c1cccc(F)c1`, for which the cell number change is -54%. The AC50 under setting [1] was 29.1 µM [falling, single point]. The half-maximal activity concentration (AC50) under setting [2] was 29.1 µM [falling, single point].

With `Cc1cc(-n2c(SCC(=O)NCc3cccs3)nc3n[nH]c(C)c3c2=N)ccc1Cl`, the cell number change is -25.8%. Also, the AC50 under setting [2] is 29.1 µM [falling, single point].

For the origin of these results see PubChem BioAssay AID2685 (National Center for Advancing Translational Sciences (NCATS), 2010).
